Measured values taken from patent publication US5593834.

Protein sequences, listed by entry. Tags and fused reporters are not part of them. Residues count along the entry.
UniProt P00639, 23-282: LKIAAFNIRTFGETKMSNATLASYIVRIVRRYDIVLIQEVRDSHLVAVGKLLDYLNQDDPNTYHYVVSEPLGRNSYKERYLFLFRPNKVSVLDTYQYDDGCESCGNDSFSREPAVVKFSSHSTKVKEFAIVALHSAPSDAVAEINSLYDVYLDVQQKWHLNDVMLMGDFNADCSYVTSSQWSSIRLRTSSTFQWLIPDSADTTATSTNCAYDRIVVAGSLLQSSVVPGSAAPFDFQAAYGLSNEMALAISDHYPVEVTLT

Tests used:
[1] = tested on: AluI restriction endonuclease; test: enzyme reaction in vitro; details: purified native protein, protein details: commercial, BRL, label: labelled (Cherenkov counted)
DNase I = DNase I (UniProt P00639); test: enzyme reaction in vitro; details: values in Table 6 not shown, purified native protein, label: labelled (Cherenkov counted)

## AAAAAAAAAGCTTTTTTTTT (double strand) [(AA)4 20-mer]
[1]; most resistant, more than 75% uncleaved after 70 min
  activity on this sequence: less active

## AAAAAAAGCTTTTTTT (double strand) [(AA)3 16-mer]
DNase I; less reactive than (AT)3
  activity on this sequence: less active
[1]; reference for (AT)3, which is cleaved 2.95 times faster
  activity on this sequence: less active

## AAAAAGCTTTTT (double strand) [(AA)2 12-mer]
[1]; reference for (AT)2, which is cleaved 3.02 times faster
  activity on this sequence: less active

## AAATATAGCTATATTT (double strand) [AA(AT)2 16-mer]
[1]; rate between (AT)3 and (AA)3
  activity on this sequence: active

## ATATATAGCTATATAT (double strand) [(AT)3 16-mer]
DNase I; more reactive than (AA)3
  activity on this sequence: active

The comparison behind a weaker result is the experiment's own reference, which may not be listed here. For part of these data: The exact form of at least one protein or probe is not confirmed.
